Results are given in words; binding and its absence hold for the method and conditions named. Binding seen in cells or lysates may run through a third protein. Some entries that bind do so weakly or less than the wild type.
Experiments:
[1] = molecular target: IFI16 (gamma-interferon-inducible protein 16) (human (endogenous in HMVEC-d, HFF, BJAB, BCBL-1)) (UniProt Q16666); assay: co-IP; nuclear fractions of uninfected BJAB, HMVEC-d and HFF cells; IP with anti-IFI16, anti-H2B or anti-cGAS antibodies overnight at 4°C, protein A/G sepharose, immunoblot
[2] = molecular target: cGAS (cGAMP-Synthase) (human (endogenous in HMVEC-d, BJAB, BCBL-1)) (UniProt Q8N884); assay: co-IP; nuclear extracts of BCBL-1 cells (latent KSHV); IP with anti-IFI16, anti-H2B or anti-cGAS antibodies, immunoblot
[3] = molecular target: cGAS (cGAMP-Synthase) (human (endogenous in HMVEC-d, BJAB, BCBL-1)) (UniProt Q8N884); assay: co-IP; nuclear fractions of uninfected BJAB, HMVEC-d and HFF cells; IP with anti-IFI16, anti-H2B or anti-cGAS antibodies overnight at 4°C, protein A/G sepharose, immunoblot
[4] = molecular target: cGAS (cGAMP-Synthase) (human (endogenous in HMVEC-d, BJAB, BCBL-1)) (UniProt Q8N884); assay: co-IP; cytoplasmic extracts of BCBL-1 cells (latent KSHV); IP with anti-IFI16, anti-H2B, anti-STING or anti-cGAS antibodies, immunoblot
[5] = molecular target: cGAS (cGAMP-Synthase) (human (endogenous in HMVEC-d, BJAB, BCBL-1)) (UniProt Q8N884); assay: proximity ligation
[6] = molecular target: cGAS (cGAMP-Synthase) (human (endogenous in HMVEC-d, BJAB, BCBL-1)) (UniProt Q8N884); assay: condition: only uninfected BJAB cells (cytoplasmic fraction); co-IP; cytoplasmic fractions of uninfected BJAB, HMVEC-d and HFF cells; IP with anti-IFI16, anti-H2B, anti-STING or anti-cGAS antibodies, immunoblot
[7] = molecular target: cGAS (cGAMP-Synthase) (human (endogenous in HMVEC-d, BJAB, BCBL-1)) (UniProt Q8N884); assay: co-IP; cytoplasmic fractions of KSHV infected (30 DNA copies/cell; 2, 4, 12, 24 h p.i.) HMVEC-d cells; IP with anti-IFI16, anti-H2B, anti-STING or anti-cGAS antibodies, immunoblot
[8] = molecular target: cGAS (cGAMP-Synthase) (human (endogenous in HMVEC-d, BJAB, BCBL-1)) (UniProt Q8N884); assay: proximity ligation; double sequential PLA (green, then red detection) on uninfected HMVEC-d cells
[9] = molecular target: cGAS (cGAMP-Synthase) (human (endogenous in HMVEC-d, BJAB, BCBL-1)) (UniProt Q8N884); assay: proximity ligation; double sequential PLA (green, then red detection) on HMVEC-d cells infected with KSHV for 4 h

The chains behind the UniProt entries cited, without tags or fusion partners.
UniProt Q16666: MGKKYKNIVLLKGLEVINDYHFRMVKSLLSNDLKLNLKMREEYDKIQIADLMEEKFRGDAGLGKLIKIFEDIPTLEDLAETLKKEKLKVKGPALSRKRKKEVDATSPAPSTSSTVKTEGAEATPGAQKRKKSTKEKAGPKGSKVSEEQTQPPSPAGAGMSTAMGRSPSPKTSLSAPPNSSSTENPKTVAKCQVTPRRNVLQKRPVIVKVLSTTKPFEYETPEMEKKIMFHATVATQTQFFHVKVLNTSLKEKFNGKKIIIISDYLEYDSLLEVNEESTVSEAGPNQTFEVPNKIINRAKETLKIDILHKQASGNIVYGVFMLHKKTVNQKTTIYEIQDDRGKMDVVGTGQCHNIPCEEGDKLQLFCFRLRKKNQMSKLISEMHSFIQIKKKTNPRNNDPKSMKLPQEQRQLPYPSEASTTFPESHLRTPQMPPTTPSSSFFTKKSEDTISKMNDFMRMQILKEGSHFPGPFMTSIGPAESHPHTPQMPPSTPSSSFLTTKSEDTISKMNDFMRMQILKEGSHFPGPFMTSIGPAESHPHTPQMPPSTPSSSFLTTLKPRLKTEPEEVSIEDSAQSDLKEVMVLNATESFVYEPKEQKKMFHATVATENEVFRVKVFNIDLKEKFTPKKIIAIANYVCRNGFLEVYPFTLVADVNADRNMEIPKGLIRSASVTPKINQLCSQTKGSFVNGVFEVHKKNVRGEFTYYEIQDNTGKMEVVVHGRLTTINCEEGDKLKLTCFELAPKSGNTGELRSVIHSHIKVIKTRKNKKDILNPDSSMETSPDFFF
UniProt Q8N884: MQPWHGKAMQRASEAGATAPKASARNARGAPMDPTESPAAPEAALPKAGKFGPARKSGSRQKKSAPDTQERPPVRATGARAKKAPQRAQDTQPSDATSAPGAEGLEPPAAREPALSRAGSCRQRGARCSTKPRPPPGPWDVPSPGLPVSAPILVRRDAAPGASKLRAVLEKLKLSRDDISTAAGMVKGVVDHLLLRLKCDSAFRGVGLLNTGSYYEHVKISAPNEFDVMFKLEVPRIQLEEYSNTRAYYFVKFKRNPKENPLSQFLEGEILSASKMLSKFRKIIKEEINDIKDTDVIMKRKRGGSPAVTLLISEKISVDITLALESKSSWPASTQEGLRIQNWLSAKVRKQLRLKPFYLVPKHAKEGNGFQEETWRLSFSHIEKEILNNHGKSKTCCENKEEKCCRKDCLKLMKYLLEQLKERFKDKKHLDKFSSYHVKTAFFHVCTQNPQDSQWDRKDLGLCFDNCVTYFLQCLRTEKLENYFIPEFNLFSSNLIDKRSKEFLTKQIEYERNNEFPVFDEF
UniProt Q9ULZ3: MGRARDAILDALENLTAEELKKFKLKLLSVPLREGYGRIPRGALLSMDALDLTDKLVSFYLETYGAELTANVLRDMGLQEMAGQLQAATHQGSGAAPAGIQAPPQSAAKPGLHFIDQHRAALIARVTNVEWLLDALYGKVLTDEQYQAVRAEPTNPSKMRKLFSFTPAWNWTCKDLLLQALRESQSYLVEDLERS
UniProt Q86WV6: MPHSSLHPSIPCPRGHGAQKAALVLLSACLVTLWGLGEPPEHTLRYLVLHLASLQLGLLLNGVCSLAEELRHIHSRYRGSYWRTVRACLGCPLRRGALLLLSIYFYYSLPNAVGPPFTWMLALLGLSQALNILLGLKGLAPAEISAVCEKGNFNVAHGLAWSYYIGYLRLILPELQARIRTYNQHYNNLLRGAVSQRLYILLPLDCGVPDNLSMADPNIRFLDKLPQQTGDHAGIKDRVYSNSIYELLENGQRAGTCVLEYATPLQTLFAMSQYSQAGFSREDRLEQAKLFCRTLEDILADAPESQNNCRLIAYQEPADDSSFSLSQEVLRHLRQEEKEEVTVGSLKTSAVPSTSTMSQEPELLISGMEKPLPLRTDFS

Row | Substance | binding [1] | binding [2] | binding [3] | binding [4] | binding [5] | binding [6] | binding [7] | binding [8] | binding [9]
1 | ASC (from UniProt Q9ULZ3 1-195) | no binding (condition: uninfected cells) |  |  |  |  |  |  |  | 
2 | IFI16 (gamma-interferon-inducible protein 16) (from UniProt Q16666 1-785) |  | binds | binds | binds | binds | no binding | binds |  | 
3 | STING (from UniProt Q86WV6 1-379) |  |  |  | binds |  |  | binds | no binding (condition: uninfected cells) | binds
